{"source": "PubChem BioAssay AID1471", "about": "(National Center for Advancing Translational Sciences (NCATS), 2008)", "note": "The campaign covered roughly 230,000 compounds. About 310 (0.13%) were called active. The inconclusive results got no clear call from the source; some entries with a clear call stand among them for comparison. Calls follow the shape of the dose curve; as a rule, active = well fitted activation curve with a large enough effect; inconclusive = small, poorly fitted or top-dose-only effect; inactive = no such curve, though single readings can be large or run the other way. Potencies beside an inconclusive call are fits to weak or partial responses and may not hold up. Potency is read from the fitted curve at half-maximal effect.", "data": [{"experiment": "qHTS Multiplex Assay to Identify Dual Action Probes in a Cell Model of Huntington: Cytoprotection (ATP); also: nearly all actives have a fitted effect of over 45% in size;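 as to cytoprotection (ATP increase): toxic huntingtin expression switched on by the ecdysone agonist tebufenozide; % of control where 0% means no effect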", "conditions": "PC12 HTT-Q103 induced, ATP luminescence, 40 h; cytoprotection (ATP increase): at 56.4 µM (top of the series) unless noted", "method_in_brief": "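PC12 cells stably carrying ecdysone-inducible Htt exon 1 (Q103)–GFP were induced with 100 nM tebufenozide (final) alongside library compounds in a dose series. Cytoprotection was scored as retained ATP by ATPlite luminescence.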", "values": [{"smiles": "Cn1c(=O)c(-c2ccc(F)cc2)nc2cnc(OCc3ccccc3)nc21", "Potency": "inconclusive: 35.5 µM [activator, single point]"}, {"smiles": "Cc1ccc(/C=N/N2CCCCC2)o1", "Potency": "inconclusive: 0.316 µM [activator, partial curve]"}, {"smiles": "COc1ccccc1CN1CCCC2(CCN(C(=O)c3ccco3)CC2)C1", "Potency": "inconclusive: 39.8 µM [activator, single point]"}, {"smiles": "COc1cccc2[nH]c3c(Cl)ncnc3c12", "Potency": "inconclusive: 1.26 µM [activator, single point]"}, {"smiles": "O=C(Nc1ccc(C(F)(F)F)cc1-c1ccccc1)c1ccccc1", "Potency": "inconclusive: 3.16 µM [activator, single point]"}, {"smiles": "COc1cccc(Cn2c(Oc3cccc(C)c3)nc3c2c(=O)n(C)c(=O)n3C)c1", "Potency": "inactive"}, {"smiles": "COC(=O)c1ccc(NC(=S)NCCCN2CCCC2=O)cc1", "Potency": "inconclusive: 2.82 µM [activator, partial curve]"}, {"smiles": "Cc1ccc(Sc2ncnc3onc(C)c23)c(C)c1", "Potency": "inconclusive: 0.0063 µM [activator, partial curve, poor fit]"}, {"smiles": "COc1ccccc1CN1CCCC2(CCN(C(=O)c3cc(C(F)(F)F)cc(C(F)(F)F)c3)CC2)C1", "Potency": "inconclusive: 5.62 µM [activator, single point]"}, {"smiles": "COc1ccc(NC(=S)NC2CCN(Cc3ccccc3)CC2)cc1OC", "Potency": "inconclusive: 0.316 µM [activator, partial curve, poor fit]"}, {"smiles": "CCCCN1C(=O)C2C3C=CC(C2C1=O)C1C2C(=O)N(CCCC)C(=O)C2C31", "note": "(stereo not given)", "cytoprotection (ATP increase)": "inactive: 13.4% [at 10 µM]"}, {"smiles": "Cc1ccccc1NC(=O)CSc1nnc(Cc2ccccc2)o1", "Potency": "inconclusive: 3.55 µM [activator, partial curve]"}, {"smiles": "CCOC(=O)C1CCN(C(=O)CCS(=O)(=O)c2ccc3c(c2)CCN3C(C)=O)CC1", "Potency": "inconclusive: 0.112 µM [activator, partial curve, poor fit]"}, {"smiles": "O=c1c(-n2cncn2)c[nH]n1-c1cccc(Cl)n1", "Potency": "inconclusive: 0.0063 µM [activator, full curve, poor fit]"}, {"smiles": "Cc1cc(=O)[nH]c(-c2ccc(C(F)(F)F)cc2)n1", "cytoprotection (ATP increase)": "inactive: 11% [at 10 µM]"}, {"smiles": "O=c1c2cc(O)c(O)cc2oc2cc(O)c(C3OC(CO)C(O)C(O)C3O)c(O)c12", "note": "(stereo not given)", "Potency": "inconclusive: 1.26 µM [activator, single point]"}, {"smiles": "CC(C)CCNc1c(-c2cccs2)nc2ccccn12", "Potency": "inconclusive: 3.55 µM [activator, single point]"}, {"smiles": "CCC(C(=O)NCCCc1ccccc1)c1ccccc1", "note": "(stereo not given)", "cytoprotection (ATP increase)": "inactive: -12.1% [at 0.074 µM]"}, {"smiles": "COc1ccc(C(c2nnnn2CC2CCCO2)N2CCN(c3ccccc3)CC2)cc1", "note": "(stereo not given)", "Potency": "inconclusive: 3.55 µM [activator, single point]"}, {"smiles": "CCOc1ccc(C2CC(c3ccccc3C)n3nc(N)nc3N2)cc1", "note": "(stereo not given)", "Potency": "inactive"}, {"smiles": "CCO[C@@H]1OC(C(N)=O)=C[C@H](C2CCCCC2)[C@H]1CCCO", "Potency": "inconclusive: 1.78 µM [activator, partial curve]"}, {"smiles": "CC=C(Cl)Cl", "Potency": "inactive"}, {"smiles": "CC(=O)OCC1=C(C(=O)O)N2C(=O)C(NC(=O)CSc3ccncc3)[C@@H]2SC1", "note": "(stereo not given in full)", "Potency": "inconclusive: 1 µM [activator, single point]"}, {"smiles": "C=C1NC(=O)c2cc(CN(C)c3ccc(C(=O)N[C@@H](CCC(=O)O)C(=O)O)s3)ccc2N1", "Potency": "inconclusive: 0.794 µM [activator, full curve, poor fit]"}, {"smiles": "COC(=O)[C@@]1(Cc2ccc(OC)cc2)[C@H]2c3cc(C(=O)N4CCCC4)n(CCN4CNCC4=O)c3C[C@H]2CN1C(=O)c1ccccc1", "Potency": "inconclusive: 7.08 µM [activator, partial curve]"}, {"smiles": "CCOC(=O)CCN1C(=O)[C@H]2[C@H]3[C@H](O)[C@H](O)C/C(=N/OC/C=C(\\C)CCC=C(C)C)[C@H]3CC[C@@H]2C1=O", "Potency": "inconclusive: 0.0018 µM [activator, full curve]"}, {"smiles": "COc1ccccc1-c1cc(Nc2ccc(F)cc2)ncn1", "Potency": "inconclusive: 3.16 µM [activator, full curve]"}, {"smiles": "COc1ccc(C(=O)/C(=C/c2cccs2)c2nc3ccccc3o2)cc1", "Potency": "inconclusive: 0.631 µM [activator, full curve, poor fit]"}, {"smiles": "COc1ccc2c3c1OC1CC(O)C=C[C@@]31CCN(C)C2", "note": "(stereo not given in full)", "Potency": "inconclusive: 1.26 µM [activator, partial curve, poor fit]"}, {"smiles": "COC(=O)C(C)N1C(=O)S/C(=C/c2cc(C)n(-c3ccccn3)c2C)C1=O", "note": "(stereo not given)", "Potency": "inactive"}, {"smiles": "O=C1CCCC(C(C(=O)OCc2ccccc2)C(=O)OCc2ccccc2)C1", "note": "(stereo not given)", "Potency": "inconclusive: 35.5 µM [activator, single point]"}, {"smiles": "Cc1cc(C(=O)COC(=O)c2cccnc2Cl)c(C)n1CC1CCCO1", "note": "(stereo not given)", "Potency": "inactive"}, {"smiles": "c1cncc(-c2nc(-n3ccnc3)c3ccccc3n2)c1", "Potency": "inconclusive: 35.5 µM [activator, single point]"}, {"smiles": "CCN(CC)CCc1nc(-c2ccccc2)no1", "Potency": "inconclusive: 0.398 µM [activator, full curve, poor fit]"}, {"smiles": "CCOC(=O)N1CCC(N(CCN(C)C)C(=S)Nc2cc(Cl)cc(Cl)c2)CC1", "Potency": "inconclusive: 31.6 µM [activator, single point]"}, {"smiles": "Cc1ccccc1CSc1nn2c(=O)c(C)nnc2s1", "Potency": "inconclusive: 28.2 µM [activator, partial curve]"}, {"smiles": "COC(=O)[C@@]1(Cc2ccccc2)[C@H]2c3cc(C(=O)N(C)C)n(Cc4ccsc4Br)c3C[C@H]2CN1C(=O)c1ccccc1", "Potency": "inconclusive: 2.51 µM [activator, partial curve, poor fit]"}, {"smiles": "O=C(CCCSc1nc(-c2ccco2)cc(C(F)(F)F)n1)Nc1ccc2c(c1)OCO2", "cytoprotection (ATP increase)": "inactive: -18.2% [at 10 µM]"}, {"smiles": "Cc1ccc(C(=O)c2ccccc2C(=O)OCC(=O)NCCc2ccc(Cl)cc2Cl)cc1", "Potency": "inconclusive: 0.891 µM [activator, single point]"}, {"smiles": "O=C(CCN1CCc2ccccc2CC1)c1ccc2c(c1)OCCO2", "Potency": "inactive"}, {"smiles": "COc1ccc(-c2cnc(N)nc2-c2ccc(OC)cc2O)cc1", "Potency": "inconclusive: 12.6 µM [activator, partial curve]"}, {"smiles": "N#CC(C#N)=c1ccc2c(c1)NC1(CCCCC1)N=2", "Potency": "inconclusive: 3.16 µM [activator, single point]"}, {"smiles": "CC(C)NC[C@@H](O)COc1cccc2ccccc12", "Potency": "inconclusive: 0.0501 µM [activator, full curve, poor fit]"}, {"smiles": "C/C(CS(=O)(=O)c1ccc(Cl)cc1)=N/NC(N)=S", "Potency": "inconclusive: 5.62 µM [activator, single point]"}, {"smiles": "Cc1cc2ccccn2c1C(=O)c1ccc(NN)c([N+](=O)[O-])c1", "Potency": "inactive"}, {"smiles": "O=C(c1cc2cc([N+](=O)[O-])ccc2oc1=O)N1CCN(c2ncccn2)CC1", "Potency": "inconclusive: 1.12 µM [activator, single point]"}, {"smiles": "C=CCNc1cnn(-c2ccc(C)cc2)c(=O)c1Sc1ccc(C)cc1", "Potency": "inactive"}, {"smiles": "COc1ccc(N2C(=O)CC(N3CCN(c4ccc(S(=O)(=O)N5CCCC5)cc4)CC3)C2=O)cc1", "note": "(stereo not given)", "Potency": "inconclusive: 35.5 µM [activator, single point]"}, {"smiles": "O=S(=O)(O)NC1CCCCC1", "Potency": "inconclusive: 10 µM [activator, partial curve]"}, {"smiles": "COc1ccc(/C=C(\\C#N)C(=O)NC2CCS(=O)(=O)C2)cc1OC", "note": "(stereo not given)", "cytoprotection (ATP increase)": "inactive: 8.02% [at 10 µM]"}, {"smiles": "NS(=O)(=O)c1ccc(NC(=S)Nc2ccn(Cc3cccc4ccccc34)n2)cc1", "Potency": "inconclusive: 0.447 µM [activator, partial curve]"}, {"smiles": "N#CCSc1nc2cc(C(=O)N3CCC(C(N)=O)CC3)ccc2c2nc3ccccc3n12", "Potency": "inactive"}, {"smiles": "O=[N+]([O-])c1ccc(NCCCN2CCOCC2)c(Cl)c1", "Potency": "inconclusive: 6.31 µM [activator, single point]"}, {"smiles": "CCCCC/C=C\\C[C@@H](O)/C=C/C=C/C=C\\[C@@H](O)CCCC(=O)O", "Potency": "inconclusive: 35.5 µM [activator, single point]"}, {"smiles": "O=C(Nc1cc([N+](=O)[O-])ccc1Cl)C1CC1", "Potency": "inconclusive: 0.112 µM [activator, full curve, poor fit]"}, {"smiles": "O=C(CCN1C(=O)C2C3C=CC(C3)C2C1=O)Oc1ccc2ccccc2c1", "note": "(stereo not given)", "Potency": "inconclusive: 0.0056 µM [activator, partial curve, poor fit]"}, {"smiles": "CN(C)S(=O)(=O)c1ccc(NC(=O)CSc2nnnn2C)cc1", "cytoprotection (ATP increase)": "inactive: 4.36% [at 10 µM]"}, {"smiles": "COc1cc(/C=N/NC(=O)NC2CCCCC2)ccc1O", "Potency": "inconclusive: 0.316 µM [activator, partial curve]"}, {"smiles": "COc1ccc(Oc2ncc3ncc(=O)n(C4CC4)c3n2)cc1", "Potency": "inconclusive: 0.0045 µM [activator, full curve, poor fit]"}, {"smiles": "Cc1ccc2c(c1)-c1ncc(C(=O)c3cc(Br)ccc3O)cc1CO2", "Potency": "inactive"}, {"smiles": "Cc1[nH]nc2c1C(c1cccc(O)c1)C1=C(CC(C)(C)CC1=O)N2", "note": "(stereo not given)", "Potency": "inconclusive: 39.8 µM [activator, single point]"}, {"smiles": "O=C(NCCN1CCOCC1)c1cc(-c2ccco2)on1", "Potency": "inconclusive: 5.62 µM [activator, single point]"}, {"smiles": "CC1CCC2C(=O)N3CCCC3C(=O)N2C1c1ccc(Br)cc1", "note": "(stereo not given)", "Potency": "inconclusive: 0.0011 µM [activator, full curve, poor fit]"}, {"smiles": "COc1ccccc1CN1CCCC2(CCNCC2)C1", "Potency": "inconclusive: 0.005 µM [activator, full curve, poor fit]"}, {"smiles": "COc1cc(/C=C/[N+](=O)[O-])ccc1OCc1cccc(C(=O)O)c1", "Potency": "inactive"}]}]}
